Reference: the supplement of paper PMC10849652
The other results are listed elsewhere or left out.

Sequences of proteins named here, by UniProt entry; tags and fusion partners are left off. A change or cut given only in a name is not applied to a line headed by its entry.
UniProt Q5XKP0: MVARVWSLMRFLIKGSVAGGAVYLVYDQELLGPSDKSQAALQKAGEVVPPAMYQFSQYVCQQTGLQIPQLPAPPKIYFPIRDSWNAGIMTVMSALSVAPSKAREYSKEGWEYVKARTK
UniProt O75352: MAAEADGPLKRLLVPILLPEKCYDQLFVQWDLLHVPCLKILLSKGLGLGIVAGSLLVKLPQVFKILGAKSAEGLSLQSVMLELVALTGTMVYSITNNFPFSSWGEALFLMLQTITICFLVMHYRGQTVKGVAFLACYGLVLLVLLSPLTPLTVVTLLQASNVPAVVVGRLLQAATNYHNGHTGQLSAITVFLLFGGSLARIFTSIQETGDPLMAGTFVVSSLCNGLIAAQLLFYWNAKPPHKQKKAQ
UniProt Q14149: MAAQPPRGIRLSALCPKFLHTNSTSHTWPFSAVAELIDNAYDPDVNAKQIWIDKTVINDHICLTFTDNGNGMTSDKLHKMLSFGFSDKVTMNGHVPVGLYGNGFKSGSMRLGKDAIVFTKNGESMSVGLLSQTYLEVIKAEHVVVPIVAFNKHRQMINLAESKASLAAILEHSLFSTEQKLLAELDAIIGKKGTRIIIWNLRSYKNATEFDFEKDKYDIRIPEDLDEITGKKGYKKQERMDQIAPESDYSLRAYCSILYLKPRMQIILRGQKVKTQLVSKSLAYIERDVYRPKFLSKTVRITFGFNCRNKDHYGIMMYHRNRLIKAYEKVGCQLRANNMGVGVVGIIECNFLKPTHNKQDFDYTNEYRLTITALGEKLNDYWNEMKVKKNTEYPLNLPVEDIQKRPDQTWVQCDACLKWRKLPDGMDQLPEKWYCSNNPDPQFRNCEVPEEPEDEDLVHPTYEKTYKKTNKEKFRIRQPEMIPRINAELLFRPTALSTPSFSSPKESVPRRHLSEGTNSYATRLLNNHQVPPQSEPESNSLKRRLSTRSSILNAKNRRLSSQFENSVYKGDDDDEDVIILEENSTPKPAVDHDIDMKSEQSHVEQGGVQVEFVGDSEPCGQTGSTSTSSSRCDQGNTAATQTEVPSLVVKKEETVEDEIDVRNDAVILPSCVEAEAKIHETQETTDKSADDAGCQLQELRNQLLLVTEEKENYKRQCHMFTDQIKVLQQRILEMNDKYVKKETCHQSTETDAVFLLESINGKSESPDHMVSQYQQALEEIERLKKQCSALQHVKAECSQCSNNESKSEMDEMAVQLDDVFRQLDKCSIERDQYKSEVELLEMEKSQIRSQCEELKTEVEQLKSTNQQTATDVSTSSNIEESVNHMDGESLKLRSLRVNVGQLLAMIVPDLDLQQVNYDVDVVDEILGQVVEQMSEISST
UniProt Q9BRT3: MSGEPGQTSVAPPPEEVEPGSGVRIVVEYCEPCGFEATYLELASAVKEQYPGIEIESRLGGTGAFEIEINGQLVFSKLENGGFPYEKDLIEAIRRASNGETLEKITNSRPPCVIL
UniProt Q7Z3U7: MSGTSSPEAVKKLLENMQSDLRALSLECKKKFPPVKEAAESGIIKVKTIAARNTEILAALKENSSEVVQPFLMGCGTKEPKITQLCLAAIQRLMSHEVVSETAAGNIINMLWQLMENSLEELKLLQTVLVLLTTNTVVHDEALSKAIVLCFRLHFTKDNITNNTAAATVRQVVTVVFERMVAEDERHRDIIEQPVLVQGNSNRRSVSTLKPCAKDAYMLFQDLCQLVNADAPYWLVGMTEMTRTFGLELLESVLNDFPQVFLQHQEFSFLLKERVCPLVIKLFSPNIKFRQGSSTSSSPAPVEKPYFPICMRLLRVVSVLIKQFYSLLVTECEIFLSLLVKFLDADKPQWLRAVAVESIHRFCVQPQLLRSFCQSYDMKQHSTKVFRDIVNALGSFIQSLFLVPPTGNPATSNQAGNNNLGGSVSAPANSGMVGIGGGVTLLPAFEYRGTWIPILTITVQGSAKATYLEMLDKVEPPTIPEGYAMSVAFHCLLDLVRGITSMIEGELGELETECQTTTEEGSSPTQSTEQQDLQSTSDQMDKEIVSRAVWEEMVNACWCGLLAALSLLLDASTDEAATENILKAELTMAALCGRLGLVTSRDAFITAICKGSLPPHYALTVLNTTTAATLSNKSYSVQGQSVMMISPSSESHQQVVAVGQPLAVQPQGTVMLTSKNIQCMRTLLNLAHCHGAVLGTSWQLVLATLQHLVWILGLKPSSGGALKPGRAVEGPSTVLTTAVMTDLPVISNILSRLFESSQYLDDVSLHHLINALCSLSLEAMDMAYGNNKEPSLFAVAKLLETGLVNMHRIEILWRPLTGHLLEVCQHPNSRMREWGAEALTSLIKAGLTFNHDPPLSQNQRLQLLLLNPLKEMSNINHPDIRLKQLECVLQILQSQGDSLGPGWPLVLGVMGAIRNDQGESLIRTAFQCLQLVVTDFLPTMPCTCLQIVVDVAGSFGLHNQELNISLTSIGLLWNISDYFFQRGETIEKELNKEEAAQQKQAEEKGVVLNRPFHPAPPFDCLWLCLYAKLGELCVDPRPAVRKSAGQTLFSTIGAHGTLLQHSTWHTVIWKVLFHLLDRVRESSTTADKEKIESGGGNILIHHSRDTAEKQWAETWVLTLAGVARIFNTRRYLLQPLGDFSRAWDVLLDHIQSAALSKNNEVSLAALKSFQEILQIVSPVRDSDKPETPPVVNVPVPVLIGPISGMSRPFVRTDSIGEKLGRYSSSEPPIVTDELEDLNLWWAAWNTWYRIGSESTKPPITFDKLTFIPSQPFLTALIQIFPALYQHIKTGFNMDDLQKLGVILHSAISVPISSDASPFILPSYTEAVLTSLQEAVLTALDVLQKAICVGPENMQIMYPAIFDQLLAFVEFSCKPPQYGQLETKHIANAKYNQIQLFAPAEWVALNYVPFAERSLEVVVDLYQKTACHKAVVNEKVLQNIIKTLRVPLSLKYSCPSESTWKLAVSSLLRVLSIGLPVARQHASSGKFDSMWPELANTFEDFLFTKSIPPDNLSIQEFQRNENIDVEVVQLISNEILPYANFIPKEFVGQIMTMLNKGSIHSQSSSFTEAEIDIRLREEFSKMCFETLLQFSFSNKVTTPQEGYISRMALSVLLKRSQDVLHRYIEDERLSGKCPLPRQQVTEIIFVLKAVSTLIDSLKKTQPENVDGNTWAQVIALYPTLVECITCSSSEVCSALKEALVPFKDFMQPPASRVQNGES
UniProt Q7L1V2: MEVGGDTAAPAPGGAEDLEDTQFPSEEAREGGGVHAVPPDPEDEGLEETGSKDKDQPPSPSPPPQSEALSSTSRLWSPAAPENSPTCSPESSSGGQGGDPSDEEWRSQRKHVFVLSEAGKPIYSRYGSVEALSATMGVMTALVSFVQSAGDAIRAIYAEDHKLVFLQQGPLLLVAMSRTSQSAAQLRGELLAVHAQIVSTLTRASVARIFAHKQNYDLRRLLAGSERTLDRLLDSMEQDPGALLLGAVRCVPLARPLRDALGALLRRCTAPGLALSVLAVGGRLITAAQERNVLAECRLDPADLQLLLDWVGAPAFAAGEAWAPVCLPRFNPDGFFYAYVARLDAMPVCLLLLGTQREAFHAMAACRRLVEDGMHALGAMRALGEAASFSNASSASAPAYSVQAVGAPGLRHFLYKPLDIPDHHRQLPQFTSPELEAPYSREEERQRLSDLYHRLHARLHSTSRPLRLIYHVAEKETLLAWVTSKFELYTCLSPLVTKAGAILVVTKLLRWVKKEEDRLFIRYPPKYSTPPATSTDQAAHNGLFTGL
UniProt Q9H081: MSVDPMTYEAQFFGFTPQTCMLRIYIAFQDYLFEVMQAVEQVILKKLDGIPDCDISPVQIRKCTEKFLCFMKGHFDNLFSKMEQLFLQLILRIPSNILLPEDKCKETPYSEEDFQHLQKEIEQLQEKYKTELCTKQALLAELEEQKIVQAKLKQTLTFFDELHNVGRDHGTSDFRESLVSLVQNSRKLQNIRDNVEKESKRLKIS
UniProt Q9BWT6: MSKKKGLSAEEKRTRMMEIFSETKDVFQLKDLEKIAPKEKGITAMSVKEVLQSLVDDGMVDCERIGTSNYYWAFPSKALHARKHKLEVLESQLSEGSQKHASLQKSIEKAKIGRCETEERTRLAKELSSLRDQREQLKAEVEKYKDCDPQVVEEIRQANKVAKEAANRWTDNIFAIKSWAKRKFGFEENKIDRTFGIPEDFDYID
UniProt Q9BUB5: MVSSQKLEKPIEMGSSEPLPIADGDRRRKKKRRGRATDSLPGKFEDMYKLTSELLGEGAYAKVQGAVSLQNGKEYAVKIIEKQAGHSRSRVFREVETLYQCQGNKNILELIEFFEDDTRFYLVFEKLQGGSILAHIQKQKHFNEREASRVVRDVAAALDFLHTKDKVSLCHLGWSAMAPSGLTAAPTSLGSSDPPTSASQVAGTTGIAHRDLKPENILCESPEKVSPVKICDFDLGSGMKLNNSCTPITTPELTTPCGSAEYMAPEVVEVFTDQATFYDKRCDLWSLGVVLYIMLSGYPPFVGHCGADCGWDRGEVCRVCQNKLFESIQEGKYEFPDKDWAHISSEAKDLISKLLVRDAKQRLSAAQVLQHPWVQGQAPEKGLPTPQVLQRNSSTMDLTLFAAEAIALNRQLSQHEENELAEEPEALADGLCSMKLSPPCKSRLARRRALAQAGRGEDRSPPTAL
UniProt Q9HCE1: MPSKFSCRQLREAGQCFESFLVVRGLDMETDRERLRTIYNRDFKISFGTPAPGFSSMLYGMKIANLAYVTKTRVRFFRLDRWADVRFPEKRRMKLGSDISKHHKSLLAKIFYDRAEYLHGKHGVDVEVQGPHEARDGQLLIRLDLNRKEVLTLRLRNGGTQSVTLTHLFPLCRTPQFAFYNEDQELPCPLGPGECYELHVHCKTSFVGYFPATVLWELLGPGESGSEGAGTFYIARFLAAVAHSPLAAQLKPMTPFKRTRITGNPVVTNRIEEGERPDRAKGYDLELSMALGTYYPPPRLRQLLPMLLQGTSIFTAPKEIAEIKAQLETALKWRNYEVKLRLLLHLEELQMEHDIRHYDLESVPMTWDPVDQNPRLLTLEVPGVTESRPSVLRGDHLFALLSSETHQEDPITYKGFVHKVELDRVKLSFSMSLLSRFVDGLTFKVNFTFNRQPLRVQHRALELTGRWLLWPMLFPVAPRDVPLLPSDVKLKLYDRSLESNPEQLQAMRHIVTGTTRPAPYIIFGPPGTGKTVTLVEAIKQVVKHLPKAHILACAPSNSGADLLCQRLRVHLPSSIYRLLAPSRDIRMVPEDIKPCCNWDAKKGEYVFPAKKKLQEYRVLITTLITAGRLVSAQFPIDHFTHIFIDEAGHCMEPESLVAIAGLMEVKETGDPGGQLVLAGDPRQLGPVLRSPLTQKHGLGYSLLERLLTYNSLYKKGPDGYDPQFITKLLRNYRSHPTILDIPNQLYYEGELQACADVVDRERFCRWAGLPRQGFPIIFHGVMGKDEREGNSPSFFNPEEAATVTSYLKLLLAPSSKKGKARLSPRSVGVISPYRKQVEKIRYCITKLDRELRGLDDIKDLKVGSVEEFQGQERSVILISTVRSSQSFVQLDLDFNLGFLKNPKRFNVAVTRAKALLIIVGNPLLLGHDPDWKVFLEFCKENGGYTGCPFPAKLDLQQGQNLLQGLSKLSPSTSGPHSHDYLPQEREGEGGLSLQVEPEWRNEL
UniProt Q6WCQ1: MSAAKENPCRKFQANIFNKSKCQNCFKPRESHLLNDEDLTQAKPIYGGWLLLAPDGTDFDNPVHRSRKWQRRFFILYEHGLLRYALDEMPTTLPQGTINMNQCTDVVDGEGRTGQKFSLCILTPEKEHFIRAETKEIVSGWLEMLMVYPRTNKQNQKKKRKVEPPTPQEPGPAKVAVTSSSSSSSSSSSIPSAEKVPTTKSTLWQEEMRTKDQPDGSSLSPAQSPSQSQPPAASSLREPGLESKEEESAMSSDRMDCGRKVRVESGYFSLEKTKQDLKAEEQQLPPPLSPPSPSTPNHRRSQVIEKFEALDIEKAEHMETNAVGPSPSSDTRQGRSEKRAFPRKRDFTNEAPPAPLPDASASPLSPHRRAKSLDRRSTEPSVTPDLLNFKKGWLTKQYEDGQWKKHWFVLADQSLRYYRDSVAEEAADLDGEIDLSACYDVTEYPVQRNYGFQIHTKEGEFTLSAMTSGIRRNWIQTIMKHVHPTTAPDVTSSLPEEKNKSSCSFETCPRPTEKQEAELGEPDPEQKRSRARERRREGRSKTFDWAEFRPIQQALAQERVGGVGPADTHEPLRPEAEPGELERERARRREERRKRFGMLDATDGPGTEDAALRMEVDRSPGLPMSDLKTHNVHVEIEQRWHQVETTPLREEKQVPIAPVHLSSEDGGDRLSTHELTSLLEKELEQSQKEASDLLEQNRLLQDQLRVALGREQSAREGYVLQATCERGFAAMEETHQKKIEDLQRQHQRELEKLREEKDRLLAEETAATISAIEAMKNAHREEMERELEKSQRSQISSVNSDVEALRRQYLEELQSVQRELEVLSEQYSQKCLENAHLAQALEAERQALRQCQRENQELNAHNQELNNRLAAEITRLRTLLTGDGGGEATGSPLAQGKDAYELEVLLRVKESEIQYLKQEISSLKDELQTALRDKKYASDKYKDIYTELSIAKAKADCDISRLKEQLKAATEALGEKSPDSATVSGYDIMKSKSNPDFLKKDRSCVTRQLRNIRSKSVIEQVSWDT

compound: C1=CC2=NC=CN=C2C=C1/C=C/3\C(=O)NC(=O)S3; assay: log2 fold change, soluble protein after heating vs DMSO (PISA); higher = thermal stabilisation; K562 cells, 10 uM, 30 min; active = over 0.2 and 3.5 SD of the protein, either way, in both replicates (recomputed)
How it was run: (§1)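 Thermal stability values are relative to control samples and come from duplicates. They are expressed as log2 fold changes. For measurement, K562 cells (2×10^6 cells/mL) received 10 μM compound for 30 min, and aliquots were heated for 3 min over 48°C-58°C, pooled, and extracted at 4°C in PBS with 0.5% NP-40. Soluble protein, the supernatant after 21,000xg for 90 min, was quantified by TMTpro 16plex LC-MS/MS with equalised channel sums.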

log2 fold change, inactive:
MPP1 (UniProt Q00013) -0.001
MICU2 (UniProt Q8IYU8) -0.015
MICOS13 (UniProt Q5XKP0) 0.039
MIER1 isoform 12 (UniProt Q8N108) 0.014
MPHOSPH10 (UniProt O00566) 0.061
MOCS3 (UniProt O95396) -0.121
MINK1 (UniProt Q8N4C8) 0.001
MIF (UniProt P14174) 0.034
MPDU1 (UniProt O75352) -0.002
MORC3 (UniProt Q14149) 0.068
MKRN2 (UniProt Q9H000) 0.002
MRPL46 (UniProt Q9H2W6) -0.001
MIEN1 (UniProt Q9BRT3) 0.099
MRPL47 (UniProt Q9HD33) -0.047
MON2 isoform 5 (UniProt Q7Z3U7) 0.015
MRPL34 (UniProt Q9BQ48) -0.03
MRPL55 isoform 2 (UniProt Q7Z7F7) -0.047
MLX (UniProt Q9UH92) -0.094
MRPL39 (UniProt Q9NYK5) -0.021
MRPL50 (UniProt Q8N5N7) 0.066
MITD1 (UniProt Q8WV92) 0.036
MIEF1 (UniProt Q9NQG6) 0.001
MICU1 isoform 3 (UniProt Q9BPX6) 0.007
MON1B (UniProt Q7L1V2) -0.01
MPV17 (UniProt P39210) 0.005
MIS12 (UniProt Q9H081) 0.052
MND1 (UniProt Q9BWT6) 0.015
MIS18A (UniProt Q9NYP9) 0.031
MLST8 (UniProt Q9BVC4) -0.026
MNAT1 (UniProt P51948) 0.008
MORF4L2 (UniProt Q15014) 0.002
MIEF1 (UniProt L0R8F8) -0.072
MKNK1 (UniProt Q9BUB5) 0.081
MOV10 (UniProt Q9HCE1) 0.049
MRPL57 (UniProt Q9BQC6) -0.059
MMS19 isoform 8 (UniProt Q96T76) 0.053
MPRIP isoform 2 (UniProt Q6WCQ1) 0.103
MICAL3 (UniProt Q7RTP6) -0.013

compound: C1=CC=C(C=C1)C2=NC(=C(N2)C3=CC=NC=C3)C4=CC(=C(C=C4)Cl)O; assay: as above
How it was run: as §1

log2 fold change, inactive:
MPP1 (UniProt Q00013) 0.012
MICU2 (UniProt Q8IYU8) 0.103
MICOS13 (UniProt Q5XKP0) 0.051
MIER1 isoform 12 (UniProt Q8N108) 0.001
MPHOSPH10 (UniProt O00566) 0.07
MINK1 (UniProt Q8N4C8) -0.064
MIF (UniProt P14174) -0.037
MPDU1 (UniProt O75352) -0.089
MORC3 (UniProt Q14149) 0.012
MKRN2 (UniProt Q9H000) -0.011
MRPL46 (UniProt Q9H2W6) 0.046
MIEN1 (UniProt Q9BRT3) 0.035
MRPL47 (UniProt Q9HD33) -0.012
MON2 isoform 5 (UniProt Q7Z3U7) 0.015
MRPL34 (UniProt Q9BQ48) 0.006
MRPL55 isoform 2 (UniProt Q7Z7F7) 0.082
MLX (UniProt Q9UH92) -0.041
MRPL39 (UniProt Q9NYK5) 0.089
MRPL50 (UniProt Q8N5N7) 0.312
MITD1 (UniProt Q8WV92) -0.015
MIEF1 (UniProt Q9NQG6) 0.025
MICU1 isoform 3 (UniProt Q9BPX6) -0.054
MON1B (UniProt Q7L1V2) 0.066
MPV17 (UniProt P39210) 0.069
MIS12 (UniProt Q9H081) -0.063
MND1 (UniProt Q9BWT6) -0.019
MIS18A (UniProt Q9NYP9) 0.044
MNAT1 (UniProt P51948) 0.002
MORF4L2 (UniProt Q15014) -0.108
MIEF1 (UniProt L0R8F8) 0.033
MKNK1 (UniProt Q9BUB5) -0.028
MOV10 (UniProt Q9HCE1) -0.049
MMS19 isoform 8 (UniProt Q96T76) 0.05
MPRIP isoform 2 (UniProt Q6WCQ1) -0.084
MICAL3 (UniProt Q7RTP6) -0.113
